PubChem BioAssay AID1259308, NCATS – 2017
In all, the deposit lists about 59,000 reagents; this is a random part of them. About 1,510 of all reagents (2.6%) count as active. 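Calls use total luciferase alone and ignore viability, so some active siRNAs may act by altering cell number.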

Aim: 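Knock-downs that increase output of a recombinant reporter protein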 (primary screen)
Cell system: human HEK293 embryonic kidney cells stably expressing firefly luciferase (HEK-CMV-Luc2-Hygro)
Reagent: single siRNA against human genes, 0.8 pmol siRNA per well
Time to read-out: 72 h
Read-out: 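Reporter luminescence and viable-cell signal on separate replicate plates, given as percent of non-targeting control and median/MAD z-scores, plus per-cell luciferase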
Scale: total luciferase, z-score and total luciferase, % of control: higher = more reporter protein produced; luciferase per cell, z-score: higher = more reporter output per viable cell; viable cells, % of control: higher = more viable cells
Rule for the call: 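An siRNA counts as active if its total luciferase robust z-score exceeds 3; genes with two or more such siRNAs out of three were retested with fresh siRNAs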
Calls: active = raised luciferase; inactive = no rise

"total luciferase, z-score","total luciferase, % of control","luciferase per cell, z-score","viable cells, % of control",call,target gene,PubChem SID
-0.689,68.2,-0.854,95.4,inactive,ISCA2,SID160732391
-2.18,38.4,-1.45,62.9,inactive,ISCA2,SID160756036
-0.739,67.2,-0.6,87.9,inactive,ISCA2,SID160756038
0.0359,82.6,-0.178,96.7,inactive,RHBDL1,SID160721299
-0.985,62.3,-0.655,82.7,inactive,RHBDL1,SID160721300
-0.748,67,-1.12,100,inactive,RHBDL1,SID160724207
-1.08,60.4,-0.419,75.3,inactive,TRIM39,SID160745112
0.94,101,0.432,100,inactive,TRIM39,SID160745113
1.66,115,0.927,101,inactive,TRIM39,SID160745114
0.746,96.7,0.651,91.1,inactive,GLMN,SID160730040
1.03,102,0.328,105,inactive,GLMN,SID160730041
0.446,90.8,0.86,80.9,inactive,GLMN,SID160730042
0.411,90.1,1.25,72.3,inactive,CD70,SID160735247
-1.47,52.7,-1.19,80.6,inactive,CD70,SID160739697
1.29,107,0.665,101,inactive,CD70,SID160739708
0.249,86.8,-0.404,108,inactive,DDX5,SID160753365
3.01,142,2.07,92,active,DDX5,SID160753376
0.298,87.8,-0.379,108,inactive,DDX5,SID160753387
-0.739,67.2,-0.931,95.9,inactive,SIRAL2,SID160742727
0.808,97.9,0.644,92.4,inactive,SIRAL2,SID160742728
-0.377,74.4,-0.992,108,inactive,SIRAL2,SID160742729
-1.6,50.1,-2.06,96.2,inactive,LOC729187 (retired record),SID160734490
-0.0136,81.6,-0.298,98.7,inactive,LOC729187 (retired record),SID160772528
0.762,97,0.178,103,inactive,LOC729187 (retired record),SID160772529
-2.27,36.7,-1.89,67.4,inactive,NT5C1A,SID160752446
0.327,88.4,0.49,86.8,inactive,NT5C1A,SID160752447
-0.637,69.2,-0.801,95.5,inactive,NT5C1A,SID160752448
0.537,92.6,0.00318,103,inactive,PDGFC,SID160744733
-0.644,69.1,-0.822,95.8,inactive,PDGFC,SID160744734
0.043,82.7,-0.164,96.5,inactive,PDGFC,SID160744735
0.393,89.7,-0.0215,101,inactive,PRDM2,SID160719354
1.96,121,1.35,94.7,inactive,PRDM2,SID160719355
-0.44,73.1,-0.605,95.8,inactive,PRDM2,SID160719356
-0.802,65.9,-0.303,79.8,inactive,MRPL49,SID160730158
2.22,126,2.07,81.7,inactive,MRPL49,SID160730168
1.45,111,1.22,89.7,inactive,MRPL49,SID160730179
0.187,85.6,0.381,86.5,inactive,LOC729609,SID160734575
-0.616,69.6,0.545,67.4,inactive,LOC729609,SID160772956
-0.287,76.2,-0.506,97.3,inactive,LOC729609,SID160772957
0.392,89.7,0.0274,99.5,inactive,SLX9,SID160753232
0.75,96.8,0.13,105,inactive,SLX9,SID160753234
0.466,91.1,-0.148,106,inactive,SLX9,SID160753235
-0.273,76.5,-0.532,98.3,inactive,TTC28,SID160736028
0.0504,82.9,-0.457,104,inactive,TTC28,SID160736029
-0.226,77.4,0.0275,85.8,inactive,TTC28,SID160736031
-0.536,71.2,-0.744,96.8,inactive,AMD1P3,SID160773460
0.205,86,0.0794,94.1,inactive,AMD1P3,SID160773462
-0.972,62.5,-0.104,71.8,inactive,AMD1P3,SID160773463

The list goes on, starting with the last 10 of the part before.
"total luciferase, z-score","total luciferase, % of control","luciferase per cell, z-score","viable cells, % of control",call,target gene,PubChem SID
-0.287,76.2,-0.506,97.3,inactive,LOC729609,SID160772957
0.392,89.7,0.0274,99.5,inactive,SLX9,SID160753232
0.75,96.8,0.13,105,inactive,SLX9,SID160753234
0.466,91.1,-0.148,106,inactive,SLX9,SID160753235
-0.273,76.5,-0.532,98.3,inactive,TTC28,SID160736028
0.0504,82.9,-0.457,104,inactive,TTC28,SID160736029
-0.226,77.4,0.0275,85.8,inactive,TTC28,SID160736031
-0.536,71.2,-0.744,96.8,inactive,AMD1P3,SID160773460
0.205,86,0.0794,94.1,inactive,AMD1P3,SID160773462
-0.972,62.5,-0.104,71.8,inactive,AMD1P3,SID160773463
4.17,165,2.8,88.1,active,LAD1,SID160776473
0.157,85,-0.416,106,inactive,LAD1,SID160776475
1.18,105,1.21,85.7,inactive,LAD1,SID160776476
1.64,115,1.41,88.4,inactive,DTWD2,SID160763666
0.702,95.8,0.514,93.5,inactive,DTWD2,SID160763667
0.147,84.8,0.119,91.9,inactive,DTWD2,SID160763668
-1.7,48.1,-1.42,78.1,inactive,SLC2A4,SID160716814
-0.046,81,-0.747,110,inactive,SLC2A4,SID160716815
-1.31,55.8,0.716,51.7,inactive,SLC2A4,SID160716816
1.33,108,0.602,103,inactive,SEC23B,SID160728542
-0.435,73.2,-0.807,101,inactive,SEC23B,SID160728543
0.853,98.9,0.135,107,inactive,SEC23B,SID160728544
1.83,118,1.67,85.1,inactive,GPR151,SID160757335
0.0927,83.7,-0.238,99.6,inactive,GPR151,SID160757336
0.11,84.1,-0.838,117,inactive,GPR151,SID160757337
0.453,90.9,0.506,88.9,inactive,NIPAL2,SID160749506
1.18,105,0.668,98.8,inactive,NIPAL2,SID160749507
0.103,83.9,0.322,86.2,inactive,NIPAL2,SID160749508
1.02,102,1.91,69.1,inactive,NUP85,SID160749741
-0.00104,81.9,-0.117,94.3,inactive,NUP85,SID160749742
-1.13,59.4,-0.437,74.4,inactive,NUP85,SID160749743
-0.444,73.1,-0.28,87.9,inactive,RNF14,SID160722598
-1.28,56.5,-0.352,69.3,inactive,RNF14,SID160722599
-0.623,69.5,-0.336,84.9,inactive,RNF14,SID160722600
0.101,83.9,0.743,77.1,inactive,PSG6,SID160715156
-0.919,63.6,-0.101,73,inactive,PSG6,SID160715157
-1.24,57.3,-1.19,87.4,inactive,PSG6,SID160715158
